Results taken from patent US20110124745A1, “Switchable Anionic Surfactants and Methods of Making and Using Same” (priority 2009, published 2011).

Columns and labels:
[1] = Oil in first decant solution in the absence of CO2 (surfactant ON)
[2] = Oil in first decant solution after exposure to CO2 (surfactant OFF); oil recapture
[3] = 50° C. Washing, 0.5 wt % surfactant solution
[4] = Room Temperature Washing, 0.5 wt % surfactant solution
[5] = 50° C. Washing, 0.1 wt % surfactant solution

| Compound | Amount of oil present in 2 mL sample of 1st decant in the absence of CO2 [1, 3] | Amount of oil present in 2 mL sample of 1st decant in the absence of CO2 [1, 4] | Amount of oil present in 2 mL sample of 1st decant in the absence of CO2 [1, 5] | Amount of oil present in 2 mL sample of 1st decant after exposure to CO2 and time for separation [2, 5] | Amount of oil present in 2 mL sample of 1st decant after exposure to CO2 and time for separation [2, 3] | Amount of oil present in 2 mL sample of 1st decant after exposure to CO2 and time for separation [2, 4] |
| --- | --- | --- | --- | --- | --- | --- |
| CCCCCCCCCCCCOS(=O)(=O)[O-].[Na+] [Sodium Dodecyl Sulfate (SDS), Sodium Dodecyl Sulfate] | 19.7 mg | 3.4 mg | – | – | – | – |
| CCCCCCCCOC(=O)c1ccc(O)c([N+](=O)[O-])c1.[Na] [Sodium octyl 4-hydroxy-3-nitrobenzoate] | 8.8 to 9.5 mg | 5.2 mg | 13 mg | 0.9 mg | 0.5 to 0.6 mg | 1.0 mg |
| Triton X-100 | 22.8 mg | 11.5 mg | – | – | – | – |
